Three compounds from patent publication EP3939964B1, “COMBINATIONS FOR INHIBITING NHE-MEDIATED ANTIPORT IN THE TREATMENT OF DISORDERS ASSOCIATED WITH FLUID RETENTION OR SALT OVERLOAD AND GASTROINTESTINAL TRACT DISORDERS” (dated 2026) can be followed below.

The subject of data set [1] is Normal female Sprague Dawley rats. The experiment in a line: Pharmacodynamic model: effect of test compounds on fecal water content. The following applies: one way ANOVA with Dunnett post tests, control vs treated.
Data set [2] can be described thus: Determination of compound remaining in feces. The following applies: oral 0.1 mg/kg, three rats.

Structures are written as SMILES. Structures were worked out from names or drawings and are uncertain.

On to `CN1Cc2c(Cl)cc(Cl)cc2C(c2ccc(S(=O)(=O)NCCOCCOCCNC(=O)Nc3ccc(NC(=O)NCCOCCOCCNS(=O)(=O)c4ccc(C5CN(C)Cc6c(Cl)cc(Cl)cc65)cc4)cc3)cc2)C1` (stereo not shown), for which the “Significant?” value in data set [1] was “Y (Results are significant if p < 0.05)”. As to `CN1Cc2c(Cl)cc(Cl)cc2C(c2cccc(S(=O)(=O)NCCOCCOCCNC(=O)Nc3ccc(NC(=O)NCCOCCOCCNS(=O)(=O)c4cccc(C5CN(C)Cc6c(Cl)cc(Cl)cc65)c4)cc3)c2)C1` (stereo not shown), the “Significant?” value in data set [1] is “Y (Results are significant if p < 0.05)”. In the case of `CN1Cc2c(Cl)cc(Cl)cc2C(c2cccc(S(=O)(=O)NCCOCCOCCNC(=O)Nc3ccc(NC(=O)NCCOCCOCCNS(=O)(=O)c4cccc(C5CN(C)Cc6c(Cl)cc(Cl)cc65)c4)cc3)c2)C1` (single isomer, unassigned), in data set [2], the “recovery in 72-hour fecal samples (summary in words)” value is “near quantitative recovery”. Besides, in data set [1], the “Significant?” value is given as “Y (Results are significant if p < 0.05)”.
